# Measured values: PubChem BioAssay AID250 (DTP/NCI, 2004)
# The list is a part of this screen's results and no random one: it is rich in T/C values a quarter to a half above the control, in often repeated tests (any T/C) and in doses without a T/C. Other doses and runs of a compound stand elsewhere. T/C gives the treated animals as a percentage of the vehicle group. Some entries give survivors of the animals treated and no T/C: the source files T/C as zero there, which appears to mark a toxic dose or a test without result, not a measured value. For some assays here: Survivors were counted at the toxicity check, usually on the fifth day, unless a day is given; later deaths do not show. Schedules are NCI's codes, read here as Q, the interval in days (D) or hours (H), X, the number of doses. Some schedules carry Z or #; the key to these is not given. For survival time, this PubChem deposit counts one and a half times the control or more as active, and values a quarter to a half above the control carry no call in these data; other NCI protocols may use other cut-offs. Some T/C values are followed by the survivors on the day toxicity was checked, most often the fifth; where none is given, no animal had died by that day. Some doses were run more than once; the results are listed from low to high. Additions like (4×) say how often a value occurs here.
# Experiments:
# [1] = system: BDF1 mice, L1210 leukemia sc, survival T/C; test: NCI In Vivo Anticancer Drug Screen. Data for tumor model L1210 Leukemia (subcutaneous) in B6D2F1 (BDF1) mice; conditions: T/C endpoint: median survival time, higher T/C = longer survival
# Summary of the method: (§1)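 Mice carrying transplanted tumors received test compounds, and survival or tumor size was measured. Values are the treated-group measurement (T) divided by that of the vehicle-treated control group (C).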
# [2] = system: BDF1 mice, L1210 leukemia sc; test: as above; conditions: T/C endpoint: median survival time, higher T/C = longer survival
# Summary of the method: as §1
# [3] = dose: 3.0 mg/kg/injection, schedule: Q01DX Z (sc), vehicle: saline
# [4] = dose: 5.0 mg/kg/injection, schedule: Q01DX Z (sc), vehicle: saline
# [5] = dose: 8.4 mg/kg/injection, schedule: Q01DX Z (sc), vehicle: saline
# [6] = dose: 14.0 mg/kg/injection, schedule: Q01DX Z (sc), vehicle: saline
# [7] = dose: 23.0 mg/kg/injection, schedule: Q01DX Z (sc), vehicle: saline
smiles,measurement,setting,value
OCC1OC(n2cnc3c(=S)nc[nH]c32)C(O)C1O (stereo not drawn),survivor count,"[1]; dose: 3200.0 mg/kg/injection, schedule: Q01DX001 (ip), vehicle: other",2 of 8
same,survivor count,"[1]; dose: 3200.0 mg/kg/injection, schedule: Q01DX009 (ip), vehicle: other",2 of 8
same,survivor count,"[1]; dose: 3200.0 mg/kg/injection, schedule: Q04DX003 (ip), vehicle: other",4 of 8
same,T/C,"[2]; dose: 50.0 mg/kg/injection, schedule: Q03HX024 (sc), vehicle: other",144 % of control
same,T/C,"[2]; dose: 800.0 mg/kg/injection, schedule: Q01DX001 (ip), vehicle: other",127 % of control
same,T/C,"[2]; dose: 800.0 mg/kg/injection, schedule: Q01DX001 (sc), vehicle: other",127 % of control
same,T/C,"[2]; dose: 800.0 mg/kg/injection, schedule: Q04DX003 (ip), vehicle: other",133 % of control
same,T/C,"[2]; dose: 800.0 mg/kg/injection, schedule: Q04DX003 (sc), vehicle: other",127 % of control
same,T/C,"[2]; dose: 1600.0 mg/kg/injection, schedule: Q01DX001 (ip), vehicle: other",133 % of control
same,T/C,"[2]; dose: 1600.0 mg/kg/injection, schedule: Q01DX001 (sc), vehicle: other",133 % of control
same,T/C,"[2]; dose: 1600.0 mg/kg/injection, schedule: Q04DX003 (ip), vehicle: other",144 % of control
same,T/C,"[2]; dose: 1600.0 mg/kg/injection, schedule: Q04DX003 (sc), vehicle: other",144 % of control
same,T/C,"[2]; dose: 3200.0 mg/kg/injection, schedule: Q01DX001 (sc), vehicle: other",133 % of control
CCCCCCOP(=O)(N1CC1)N1CC1,T/C,"[1]; dose: 1.8 mg/kg/injection, schedule: Q01DX Z (sc), vehicle: saline","110, 112, 115 [9 of 10 alive], 120 % of control"
same,T/C,[1]; [3],150 [8 of 10 alive] and 160 % of control
same,T/C,[1]; [4],"164, 165, 175, 210 % of control"
same,T/C,[1]; [5],"150, 176, 180, 195 % of control"
same,T/C,[1]; [6],"160, 160 [8 of 10 alive], 180 % of control (2×)"
same,T/C,[1]; [7],"150 (2×), 155 [8 of 10 alive], 180 % of control"
same,T/C,[2]; [3],128 and 140 % of control
same,T/C,[2]; [5],140 % of control
same,T/C,[2]; [6],140 % of control
same,T/C,"[2]; dose: 14.0 mg/kg/injection, schedule: Q## X Z (sc), vehicle: saline",130 % of control
same,T/C,[2]; [7],136 % of control
same,T/C,"[2]; dose: 65.0 mg/kg/injection, schedule: Q01DX Z (sc), vehicle: saline",140 % of control
same,T/C,"[2]; dose: 180.0 mg/kg/injection, schedule: Q## X Z (sc), vehicle: saline",130 % of control
same,T/C,"[2]; dose: 300.0 mg/kg/injection, schedule: Q01DX001 (sc), vehicle: saline",130 % of control
CN(N=O)C(=O)N[C@@H](C=O)[C@@H](O)[C@H](O)[C@H](O)CO,survivor count,"[1]; dose: 200.0 mg/kg/injection, schedule: Q01DX009 (sc), vehicle: other",1 of 10
same,T/C,"[2]; dose: 50.0 mg/kg/injection, schedule: Q01DX009 (sc), vehicle: other",131 % of control [9 of 10 alive]
same,T/C,"[2]; dose: 100.0 mg/kg/injection, schedule: Q01DX009 (sc), vehicle: other",128 % of control
CCC(=O)OCC1OC(n2cnc3c(=S)nc(N)[nH]c32)C(OC(=O)CC)C1OC(=O)CC (stereo not drawn),survivor count,"[1]; dose: 39.0 mg/kg/injection, schedule: Q01DX Z (sc), vehicle: carboxymethylcellulose (CMC)",5 of 8
same,T/C,"[2]; dose: 8.4 mg/kg/injection, schedule: Q01DX Z (sc), vehicle: carboxymethylcellulose (CMC)",131 % of control
CCCCN(CCCC)P(=O)(N1CC1)N1CC1,survivor count,"[1]; dose: 1.08 mg/kg/injection, schedule: Q01DX Z (sc), vehicle: saline",6 of 10
same,survivor count,[1]; [4],6 of 10
same,survivor count,[1]; [5],6 of 10
same,survivor count,[1]; [6],6 of 10
same,T/C,[2]; [7],135 % of control [9 of 10 alive]
same,T/C,"[2]; dose: 39.0 mg/kg/injection, schedule: Q01DX Z (sc), vehicle: saline",140 % of control
